Experimental data published in article doi:10.1101/2024.09.13.612963 (bioRxiv, 2024).

Target: T1, Miro1-sfGFP-FLAG-I3-01 synthetic cargo (human) (UniProt Q8IXI2)
T1 sequence: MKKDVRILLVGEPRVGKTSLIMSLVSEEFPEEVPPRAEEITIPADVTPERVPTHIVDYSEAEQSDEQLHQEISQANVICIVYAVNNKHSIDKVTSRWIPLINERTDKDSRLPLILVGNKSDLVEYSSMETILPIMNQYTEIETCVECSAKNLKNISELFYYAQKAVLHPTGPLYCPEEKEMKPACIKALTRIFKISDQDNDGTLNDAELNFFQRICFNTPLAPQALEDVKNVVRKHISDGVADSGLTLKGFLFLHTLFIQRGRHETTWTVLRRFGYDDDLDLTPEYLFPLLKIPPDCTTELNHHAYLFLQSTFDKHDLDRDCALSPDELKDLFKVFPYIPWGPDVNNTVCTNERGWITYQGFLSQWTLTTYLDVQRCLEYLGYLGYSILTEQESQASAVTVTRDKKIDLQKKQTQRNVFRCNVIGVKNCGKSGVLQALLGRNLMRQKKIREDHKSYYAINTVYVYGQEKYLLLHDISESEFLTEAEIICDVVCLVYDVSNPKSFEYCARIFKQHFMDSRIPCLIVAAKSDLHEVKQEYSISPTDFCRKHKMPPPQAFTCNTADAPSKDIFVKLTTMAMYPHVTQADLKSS
Test: affinity purification with mass spectrometry

binding: binds
B1: TRAK2-mScarlet (wild type, truncated before the mitochondrial binding domain) (domain or fragment, UniProt O60296 1-700)
chain: MSQSQNAIFTSPTGEENLMNSNHRDSESITDVCSNEDLPEVELVSLLEEQLPQYRLKVDTLFLYENQDWTQSPHQRQHASDALSPVLAEETFRYMILGTDRVEQMTKTYNDIDMVTHLLAERDRDLELAARIGQALLKRNHVLSEQNESLEEQLGQAFDQVNQLQHELCKKDELLRIVSIASEESETDSSCSTPLRFNESFSLSQGLLQLEMLQEKLKELEEENMALRSKACHIKTETVTYEEKEQQLVSDCVKELRETNAQMSRMTEELSGKSDELIRYQEELSSLLSQIVDLQHKLKEHVIEKEELKLHLQASKDAQRQLTMELHELQDRNMECLGMLHESQEEIKELRSRSGPTAHLYFSQSYGAFTGESLAAEIEGTMRKKLSLDEESSLFKQKAQQKRVFDTVRIANDTRGRSISFPALLPIPGSNRSSVIMTAKPFESGLQQTEDKSLLNQGSSSEEVAGSSQKMGQPGPSGDSDLATALHRLSLRRQNYLSEKQFFAEEWQRKIQVLADQKEGVSGCVTPTESLASLCTTQSEITDLSSASCLRGFMPEKLQIVKPLEGSQTLYHWQQLAQPNLGTILDPRPGVITKGFTQLPGDAIYHISDLEEDEEEGITFQVQQPLEVEEKLSTSKPVTGIFLPPITSAGGPVTVATANPGKCLSCTNSTFTFTTCRILHPSDITQVTPSSGFPSLSCGS

No constants are given. Whether binding was seen depends on the method and setting. In cells and extracts the contact can be indirect. Here binding means that the protein was enriched with, or labelled near, the bait; the list need not be complete. Sequences can lack the tags named with a protein.
